Screening data, single-dose tests

Amino acid sequences for entries named in this document (tags omitted).
UniProt P9WFT3, whole entry: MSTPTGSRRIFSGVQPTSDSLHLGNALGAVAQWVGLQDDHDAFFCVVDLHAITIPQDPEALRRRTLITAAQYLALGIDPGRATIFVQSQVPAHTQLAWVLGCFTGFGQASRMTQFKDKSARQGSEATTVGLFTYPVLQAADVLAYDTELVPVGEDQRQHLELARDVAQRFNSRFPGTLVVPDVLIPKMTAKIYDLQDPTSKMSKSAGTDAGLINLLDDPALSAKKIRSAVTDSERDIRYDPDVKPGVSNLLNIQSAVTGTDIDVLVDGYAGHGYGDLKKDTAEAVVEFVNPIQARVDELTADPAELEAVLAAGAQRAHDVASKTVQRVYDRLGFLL

From ChEMBL document CHEMBL3988442, “University of Dundee, Small-Polar-MMV Screening Library” (2021).

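Tryptophan-tRNA ligase, Mycobacterium tuberculosis (UniProt P9WFT3). Enzyme assay of tryptophanyl-tRNA synthetase; the read-out is not stated. Compounds at 10 µM. Higher most likely means stronger inhibition; the record gives no direction and few retests gave an IC50. Of about 65,000 compounds tested this way, about 64 (0.098%) reached 50% or more in at least one test.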

Values are the deposited “Percent Effect”, in %.
The controls that fix the scale are not given in the record; negative values are as filed.
Compounds were drawn at random from those tested, without regard to their results.

structure,Percent Effect
Cc1noc(C)c1S(=O)(=O)N1CCC(n2cccn2)CC1,-1.534
O=C(Nc1nccs1)NC1CCOc2ccccc21 (stereo unspecified),-2.963
CCOC(=O)CC(C)Nc1nc(C(C)(C)C)nc2c1cnn2C (stereo unspecified),-1.538
Cn1cnc2c1CCN(Cc1nc(COc3ccc(F)cc3)no1)C2,0.4873
COCCOc1ccc(NC(=O)N(CCO)C2CC2)cn1,2.973
COCCOCC(=O)NCc1ccc(N(C)C)nc1,-5.776
CSc1ccc(NCC(=O)NCC2CC2)cc1F,0.3458
O=C1CCCN1Cc1nc(-c2ccsc2)no1,5.594
N#CC1CCCN(c2ncnc3c2CCN(Cc2ccccc2)CC3)C1 (stereo unspecified),1.762
Cc1cc(CC(C)Nc2nc(C3CCCC3)nc3c2cnn3C)[nH]n1 (stereo unspecified),-1.008
O=C(Cc1ccccc1)NC[C@H]1Cn2ccnc2CO1,-1.897
CN1CC2(CCN(C(=O)Cc3ccc(O)c(F)c3)CC2)CC1=O,15.47
CCS(=O)(=O)N1CCc2ccc(NC(=O)NC(C)(C)C)cc21,-1.467
F[C@@H]1CN(C2CCC2)C[C@@H]1OCc1nc2ncccc2[nH]1,-0.8346
CC[C@@H]1N(Cc2ccc(F)cc2)CCC[C@]12CCC(=O)N2CCOC,0.4537
COCc1ncn2c1CN(S(=O)(=O)c1cccs1)CCC2,5.045
CCCN1CCN(Cc2nccn2CC)C(C)C1 (stereo unspecified),4.128
CC[C@H]1COCCN1C(=O)c1cnc(N2CCN(C)CC2)nc1C,0.8215
CN(C)CCNC(=O)c1nc2c(o1)CN(c1ncccn1)C2,-1.402
c1cnc(N2CCC(NCc3cnc(C4CCC4)s3)CC2)nc1,3.592
O=C(NCCn1ccnc1)c1cccc(F)c1,-3.021
CCCc1nnc2sc(C3CCN(CCOC)CC3)nn12,-0.1566
CCCC(=O)N(CCN1CCOCC1)c1nc2c(OC)ccc(C)c2s1,-7.067
CCc1cc(C(=O)N2CCC(C3CCN(c4ncccn4)CC3)C2)on1 (stereo unspecified),1.538
CN1CCC2(COCCN(Cc3ccc4c(c3)OCO4)C2)C1 (stereo unspecified),0.9166
c1ccc(CN2CCc3ncnc(-c4cccnc4)c3CC2)nc1,-1.893
CCN(CC)C[C@H]1CN2CC[C@H]1C[C@@H]2CNC(=O)c1ccco1,-2.049
Cc1ccc2nc(C(=O)N3CCCC[C@]4(C)NC(=O)CCC[C@H]34)cn2c1,-2.261
COc1ccc(C[C@@H]2CC[C@H](CN(C)C3CCN(C)CC3)O2)cc1,1.183
NS(=O)(=O)c1ccc(F)c(C(=O)NCCSc2ccccn2)c1,-3.95
CC(C)CCNc1nc(C(=O)NC2CC2)cs1,0.3408
CCc1nc(CCNC(=O)C2CC2)sc1C,0.8073
CCN1CC2(CC1=O)CN(C(C)=O)CCN(S(C)(=O)=O)C2 (stereo unspecified),4.36
Cc1cccc(CN2C[C@@H]3OCCN(c4ccnc(N(C)C)n4)[C@@H]3C2)c1,4.888
CC(=O)N1CC(C)CN(Cc2ccon2)c2ccccc21 (stereo unspecified),-3.01
Cc1ccnc(C2(C)CCCN2S(=O)(=O)c2cccnc2)n1 (stereo unspecified),-4.617
Cc1nccc(CNC(=O)NCCC(=O)N2CCCc3ccccc32)n1,-3.783
c1cncc(-c2nnc(C3(c4ccc5c(c4)OCO5)CCOCC3)o2)c1,-0.3303
Cn1c2c(ccc1=O)CC(NS(C)(=O)=O)CC2 (stereo unspecified),-2.819
Fc1ccc(OCc2nnc([C@H]3CCN(Cc4ccncc4)C3)o2)cc1,-4.744
CN1CCCN(C(=O)c2cccc(S(=O)(=O)NCC3(C)COC3)c2)CC1,0.6606
Cn1nccc1CNC(=O)C1CCCCC1,3.871
Cc1nc(N2CCN(C(=O)c3ccco3)CC2)c2c(n1)c(C)nn2C,0.1295
COc1ccccc1CNC(=O)Cn1nc(-c2ccc(F)cc2)oc1=O,16.64
CC(C)Oc1ncnc2c1CCN(Cc1cccs1)CC2,-0.9444
Cc1cccc(-c2nnn3c2COC(CNS(=O)(=O)C2CC2)C3)c1 (stereo unspecified),-8.913
Cc1nc(Cc2ccccc2)nc2sc(C(=O)O)c(C)c12,0.8039
CC(O)CN1CCC(CNCc2cccc(OC(C)C)c2)CC1 (stereo unspecified),0.2347
CC(C)c1ccc2c(c1)CCCN2C(=O)CN(C)S(C)(=O)=O,3.342
CCOc1ccc(N(CC(=O)c2ccccc2)C2=NCCCCC2)cc1,-0.1059
Cc1cc(C)n(C2CCCN(C(=O)c3c[nH]c(=O)c(Cl)c3)C2)n1 (stereo unspecified),-0.08136
COc1cccc(OCC2CCCN(C(=O)c3cnc(C)nc3O)C2)c1 (stereo unspecified),3.483
CCc1ccccc1CN1CCN(Cc2ncc[nH]2)[C@H]2CS(=O)(=O)C[C@H]21,2.803
c1ccc(-c2nnc(CN3CCOC(Cn4cccn4)C3)o2)cc1 (stereo unspecified),-3.324
O=C(O)c1cc(S(=O)(=O)Nc2ccc(F)cc2F)cc2c1OCCO2,-3.888
c1ccc(CN2CCC(NCCSc3cnn[nH]3)C2)cc1 (stereo unspecified),-0.315
Cc1nc2cc(O)nn2c(C)c1CCC(=O)NCc1cc(Br)cs1,0.4868
CC(C)NC(=O)NCc1ccc(C(=O)NC(C)Cn2cccn2)cc1 (stereo unspecified),-1.129

The first 5 entries again:

Cc1noc(C)c1S(=O)(=O)N1CCC(n2cccn2)CC1 read -1.534%.
O=C(Nc1nccs1)NC1CCOc2ccccc21 (stereo unspecified) read -2.963%.
CCOC(=O)CC(C)Nc1nc(C(C)(C)C)nc2c1cnn2C (stereo unspecified) read -1.538%.
Cn1cnc2c1CCN(Cc1nc(COc3ccc(F)cc3)no1)C2 read 0.4873%.
COCCOc1ccc(NC(=O)N(CCO)C2CC2)cn1 read 2.973%.